The target of assay [1] is HuTORE (putative human homologue of TORE) (human). Put plainly: ligand blot of THP-1 lysate with radiolabelled C2 (FIG. 10B).
For assay [2] the target is unchanged. Put plainly: ligand blot of THP-1 total protein lysate (non-reducing SDS-PAGE) with I125-labelled C2.

These are yes or no findings as the source states them, for the method shown. Binding calls can cover weak binding; strength is not graded here.

B1: human complement protein C2 (ligand, UniProt P06681 21-752, looked up)
chain: APSCPQNVNISGGTFTLSHGWAPGSLLTYSCPQGLYPSPASRLCKSSGQWQTPGATRSLSKAVCKPVRCPAPVSFENGIYTPRLGSYPVGGNVSFECEDGFILRGSPVRQCRPNGMWDGETAVCDNGAGHCPNPGISLGAVRTGFRFGHGDKVRYRCSSNLVLTGSSERECQGNGVWSGTEPICRQPYSYDFPEDVAPALGTSFSHMLGATNPTQKTKESLGRKIQIQRSGHLNLYLLLDCSQSVSENDFLIFKESASLMVDRIFSFEINVSVAIITFASEPKVLMSVLNDNSRDMTEVISSLENANYKDHENGTGTNTYAALNSVYLMMNNQMRLLGMETMAWQEIRHAIILLTDGKSNMGGSPKTAVDHIREILNINQKRNDYLDIYAIGVGKLDVDWRELNELGSKKDGERHAFILQDTKALHQVFEHMLDVSKLTDTICGVGNMSANASDQERTPWHVTIKPKSQETCRGALISDQWVLTAAHCFRDGNDHSLWRVNVGDPKSQWGKEFLIEKAVISPGFDVFAKKNQGILEFYGDDIALLKLAQKVKMSTHARPICLPCTMEANLALRRPQGSTCRDHENELLNKQSVPAHFVALNGSKLNINLKMGVEWTSCAEVVSQEKTMFPNLTDVREVVTDQFLCSGTQEDESPCKGESGGAVFLERRFRFFQVGLVSWGLYNPCLGSADKNSRKRAPRSKVPPPRDFHINLFRMQPWLRQHLGDVLNFLPL
Regarding B1, the binding result in assay [1] and in assay [2] was “binds” in each case.
